# Data reported in the supplement of paper PMC8728848.
# The other results are listed elsewhere or left out.
# B1: PX9937I-bfa-538-26-538 (Bacteroides fragilis) (protein)
# chain: DKLDLSPIDYYGSGSYWKTEAQATAYIDGIHKHLRDAAWQHTITFGELRGGRFITGASSDGMGVSNGDIILQNFDETHTGVSKFGDLFGRITNLNLFIARVTDATYLSDEMKNFYLGEVYGLRAFYYFDLYRIYGGVPLRLTADVVEGVIDPNKLYMARSTPKEVMTQIKSDLNKSMEYFGNMNDFDPYKRGKKVYWSKAATECLMGEVYLWTSKVTTGDDVANPADLTIAKTHLESVLNNYNLKMLDDFSQVFNAKNKANDEIIFAIRFLEGEATNSNGTFTYNVGTGSTKNRYQANGEVFGDALDIQNTGNQTYEYNKAVYQNFDDADTRKEATFIASYNKDGKTGELSLYGTHVRKNIGYVNAQGARVYCGDYIFYRLPWVYLTLAEIANMEGDNAAVAKYINLVRKRAYGNAWDETLYAYPETADFTTNELAILHEKDKEFIQEGQRWWDLRRMTLTKGGTPLVFCKEGSLLGDAPILNKSTEAHKLLWPIEKTMLNKDPALEQTPGYK
# What was measured:
# Experiment in all cases: glycan array binding signal (z-score within array); higher = stronger binding
# Details in all cases: glycan notation: IUPAC condensed, linker removed
# [1] = target: Neu5Ac(a2-3)Gal(b1-3)GalNAc
# In short: (§1)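 From the Consortium for Functional Glycomics database, 3228 arrays were curated, keeping only those whose protein sequence was available. Binding is given as a within-array Z-score averaged across arrays sharing a protein sequence and across linkers. Negative Z-scores can be read as non-binding.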
# [2] = target: Neu5Ac(a2-3)Gal(b1-3)GalNAc(b1-3)Gal(a1-4)Gal(b1-4)Glc
# In short: as §1
# [3] = target: Neu5Ac(a2-3)Gal(b1-3)GalNAc(b1-4)[Neu5Ac(a2-3)]Gal(b1-4)Glc
# In short: as §1
# [4] = target: Neu5Ac(a2-3)Gal(b1-3)GalNAc(b1-4)[Neu5Ac(a2-8)Neu5Ac(a2-3)]Gal(b1-4)Glc
# In short: as §1
# [5] = target: Neu5Ac(a2-3)Gal(b1-3)GalNAc6S
# In short: as §1
# [6] = target: Neu5Ac(a2-3)Gal(b1-3)GlcNAc
# In short: as §1
# [7] = target: Neu5Ac(a2-3)Gal(b1-3)GlcNAc(b1-2)Man
# In short: as §1
# [8] = target: Neu5Ac(a2-3)Gal(b1-3)GlcNAc(b1-2)Man(a1-3)[GlcNAc(b1-4)][Neu5Ac(a2-3)Gal(b1-3)GlcNAc(b1-2)Man(a1-6)]Man(b1-4)GlcNAc(b1-4)GlcNAc
# In short: as §1
# [9] = target: Neu5Ac(a2-3)Gal(b1-3)GlcNAc(b1-2)Man(a1-3)[Neu5Ac(a2-3)Gal(b1-3)GlcNAc(b1-2)Man(a1-6)]Man(b1-4)GlcNAc(b1-4)GlcNAc
# In short: as §1
# [10] = target: Neu5Ac(a2-3)Gal(b1-3)GlcNAc(b1-3)Gal(b1-3)GlcNAc
# In short: as §1
# [11] = target: Neu5Ac(a2-3)Gal(b1-3)GlcNAc(b1-3)Gal(b1-4)GlcNAc
# In short: as §1
# [12] = target: Neu5Ac(a2-3)Gal(b1-3)GlcNAc(b1-3)GalNAc
# In short: as §1
# [13] = target: Neu5Ac(a2-3)Gal(b1-3)GlcNAc(b1-4)Gal(b1-4)Glc
# In short: as §1
# [14] = target: Neu5Ac(a2-3)Gal(b1-3)GlcNAc(b1-6)GalNAc
# In short: as §1
# [15] = target: Neu5Ac(a2-3)Gal(b1-3)GlcNAc6S
# In short: as §1
# [16] = target: Neu5Ac(a2-3)Gal(b1-3)[Fuc(a1-4)]GlcNAc
# In short: as §1
# [17] = target: Neu5Ac(a2-3)Gal(b1-3)[Fuc(a1-4)]GlcNAc(b1-3)Gal(b1-3)[Fuc(a1-4)]GlcNAc
# In short: as §1
# [18] = target: Neu5Ac(a2-3)Gal(b1-3)[Fuc(a1-4)]GlcNAc(b1-3)Gal(b1-4)[Fuc(a1-3)]GlcNAc
# In short: as §1
# [19] = target: Neu5Ac(a2-3)Gal(b1-3)[GlcNAc(b1-6)]GalNAc
# In short: as §1
# [20] = target: Neu5Ac(a2-3)Gal(b1-3)[Neu5Ac(a2-6)]GalNAc
# In short: as §1
# [21] = target: Neu5Ac(a2-3)Gal(b1-3)[Neu5Ac(a2-6)]GlcNAc(b1-3)[Fuc(a1-3)[Gal(b1-4)]GlcNAc(b1-6)]Gal(b1-4)Glc
# In short: as §1
# [22] = target: Neu5Ac(a2-3)Gal(b1-3)]Neu5Ac(a2-3)Gal(b1-4)]GlcNAc
# In short: as §1
# Neu5Ac(a2-3)Gal(b1-4)Glc = target: Neu5Ac(a2-3)Gal(b1-4)Glc
# In short: as §1
# [23] = target: Neu5Ac(a2-3)Gal(b1-4)GlcNAc
# In short: as §1
# [24] = target: Neu5Ac(a2-3)Gal(b1-4)GlcNAc(b1-2)Man
# In short: as §1
# [25] = target: Neu5Ac(a2-3)Gal(b1-4)GlcNAc(b1-2)Man(a1-3)[GlcNAc(b1-4)][Neu5Ac(a2-3)Gal(b1-4)GlcNAc(b1-2)Man(a1-6)]Man(b1-4)GlcNAc(b1-4)GlcNAc
# In short: as §1
# [26] = target: Neu5Ac(a2-3)Gal(b1-4)GlcNAc(b1-2)Man(a1-3)[Neu5Ac(a2-3)Gal(b1-4)GlcNAc(b1-2)Man(a1-6)]Man(b1-4)GlcNAc(b1-4)GlcNAc
# In short: as §1
# [27] = target: Neu5Ac(a2-3)Gal(b1-4)GlcNAc(b1-2)Man(a1-3)[Neu5Ac(a2-3)Gal(b1-4)GlcNAc(b1-2)Man(a1-6)]Man(b1-4)GlcNAc(b1-4)[Fuc(a1-6)]GlcNAc
# In short: as §1
# [28] = target: Neu5Ac(a2-3)Gal(b1-4)GlcNAc(b1-2)Man(a1-3)[Neu5Ac(a2-6)Gal(b1-4)GlcNAc(b1-2)Man(a1-6)]Man(b1-4)GlcNAc(b1-4)GlcNAc
# In short: as §1
# [29] = target: Neu5Ac(a2-3)Gal(b1-4)GlcNAc(b1-2)[Neu5Ac(a2-3)Gal(b1-4)GlcNAc(b1-4)]Man(a1-3)[GlcNAc(b1-4)][Neu5Ac(a2-3)Gal(b1-4)GlcNAc(b1-2)[Neu5Ac(a2-3)Gal(b1-4)GlcNAc(b1-6)]Man(a1-6)]Man(b1-4)GlcNAc(b1-4)GlcNAc
# In short: as §1
# [30] = target: Neu5Ac(a2-3)Gal(b1-4)GlcNAc(b1-2)[Neu5Ac(a2-3)Gal(b1-4)GlcNAc(b1-4)]Man(a1-3)[GlcNAc(b1-4)][Neu5Ac(a2-3)Gal(b1-4)GlcNAc(b1-4)Man(a1-6)]Man(b1-4)GlcNAc(b1-4)GlcNAc
# In short: as §1
# [31] = target: Neu5Ac(a2-3)Gal(b1-4)GlcNAc(b1-2)[Neu5Ac(a2-3)Gal(b1-4)GlcNAc(b1-6)]Man(a1-6)[Neu5Ac(a2-3)Gal(b1-4)GlcNAc(b1-2)Man(a1-3)]Man(b1-4)GlcNAc(b1-4)GlcNAc
# In short: as §1
# [32] = target: Neu5Ac(a2-3)Gal(b1-4)GlcNAc(b1-2)[Neu5Ac(a2-3)Gal(b1-4)GlcNAc(b1-6)]Man(a1-6)[Neu5Ac(a2-3)Gal(b1-4)GlcNAc(b1-2)Man(a1-3)][GlcNAc(b1-4)]Man(b1-4)GlcNAc(b1-4)GlcNAc
# In short: as §1
# [33] = target: Neu5Ac(a2-3)Gal(b1-4)GlcNAc(b1-3)Gal
# In short: as §1
# [34] = target: Neu5Ac(a2-3)Gal(b1-4)GlcNAc(b1-3)Gal(b1-3)GlcNAc
# In short: as §1
# [35] = target: Neu5Ac(a2-3)Gal(b1-4)GlcNAc(b1-3)Gal(b1-4)GlcNAc
# In short: as §1
# [36] = target: Neu5Ac(a2-3)Gal(b1-4)GlcNAc(b1-3)Gal(b1-4)GlcNAc(b1-2)Man(a1-3)[Neu5Ac(a2-3)Gal(b1-4)GlcNAc(b1-3)Gal(b1-4)GlcNAc(b1-2)Man(a1-6)]Man(b1-4)GlcNAc(b1-4)GlcNAc
# In short: as §1
binder,measurement,setting,value
B1,glycan array binding signal (z-score),[1],-0.717
same,glycan array binding signal (z-score),[2],-1
same,glycan array binding signal (z-score),[3],-0.247
same,glycan array binding signal (z-score),[4],0.916
same,glycan array binding signal (z-score),[5],0.703
same,glycan array binding signal (z-score),[6],-0.606
same,glycan array binding signal (z-score),[7],-0.689
same,glycan array binding signal (z-score),[8],-0.678
same,glycan array binding signal (z-score),[9],-0.238
same,glycan array binding signal (z-score),[10],-0.393
same,glycan array binding signal (z-score),[11],0.23
same,glycan array binding signal (z-score),[12],-0.596
same,glycan array binding signal (z-score),[13],0.537
same,glycan array binding signal (z-score),[14],-0.924
same,glycan array binding signal (z-score),[15],-0.527
same,glycan array binding signal (z-score),[16],-1.07
same,glycan array binding signal (z-score),[17],-1.26
same,glycan array binding signal (z-score),[18],-0.252
same,glycan array binding signal (z-score),[19],0.112
same,glycan array binding signal (z-score),[20],-1.09
same,glycan array binding signal (z-score),[21],-0.319
same,glycan array binding signal (z-score),[22],-0.114
same,glycan array binding signal (z-score),Neu5Ac(a2-3)Gal(b1-4)Glc,0.09
same,glycan array binding signal (z-score),[23],-0.113
same,glycan array binding signal (z-score),[24],0.241
same,glycan array binding signal (z-score),[25],-0.205
same,glycan array binding signal (z-score),[26],-0.226
same,glycan array binding signal (z-score),[27],-0.552
same,glycan array binding signal (z-score),[28],-1.6
same,glycan array binding signal (z-score),[29],-0.426
same,glycan array binding signal (z-score),[30],0.172
same,glycan array binding signal (z-score),[31],-0.053
same,glycan array binding signal (z-score),[32],-0.956
same,glycan array binding signal (z-score),[33],-0.697
same,glycan array binding signal (z-score),[34],-0.856
same,glycan array binding signal (z-score),[35],-0.304
same,glycan array binding signal (z-score),[36],-0.246

# 2 successive entries from above:
binder,measurement,setting,value
B1,glycan array binding signal (z-score),[33],-0.697
same,glycan array binding signal (z-score),[34],-0.856
